Experimental data taken from article PMC8041195.
No constants are given. Whether binding was seen depends on the method and setting.

Target: T1, Vps26 (S. pombe) (UniProt Q10243)
T1 sequence: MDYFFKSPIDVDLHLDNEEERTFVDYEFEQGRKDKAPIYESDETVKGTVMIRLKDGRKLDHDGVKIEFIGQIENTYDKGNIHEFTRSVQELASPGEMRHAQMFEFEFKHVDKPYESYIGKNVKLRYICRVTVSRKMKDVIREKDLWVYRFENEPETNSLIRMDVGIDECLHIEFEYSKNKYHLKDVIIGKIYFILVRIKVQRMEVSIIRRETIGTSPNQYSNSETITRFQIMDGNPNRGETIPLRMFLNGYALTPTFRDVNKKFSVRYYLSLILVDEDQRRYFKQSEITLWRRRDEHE
Experiment: two-hybrid; pGADT7 and pGBKT7 plasmids in S. cerevisiae AH109; growth on YNB without histidine, 30°C, four days

Substance: Stx8* (Stx8 lacking the TM helix) (S. pombe) (domain or fragment)
- binding: no binding
